Measured values as given in the supplement of paper PMC10849652.
This is one part of the list.

Key:
Assay in all cases: log2 fold change, soluble protein after heating vs DMSO (PISA); higher = thermal stabilisation; K562 lysate, 10 uM; active = over 0.2 and 3.5 SD of the protein, either way, in both replicates (recomputed)
[1] = compound: C1=CC2=NC=CN=C2C=C1/C=C/3\C(=O)NC(=O)S3
Procedure, shortened: (§1)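 Soluble protein was defined as the supernatant remaining after 21,000xg for 90 min, following pooling of heated aliquots and adjustment to 0.5% NP-40 at 4°C. Before that, crude K562 extract at 1 mg/mL protein in PBS pH 7.4 with 1 mM MgCl2 was treated with 10 μM compound for 30 min and heated for 3 min across 48°C-58°C. Quantification used TMTpro 16plex LC-MS/MS with channel sums equalised, and values are log-two fold changes in thermal stability relative to solvent controls from duplicates.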

[2] = compound: C1=CC=C(C=C1)C2=NC(=C(N2)C3=CC=NC=C3)C4=CC(=C(C=C4)Cl)O
Procedure, shortened: as §1

[3] = compound: C1CCN(C1)C(=O)NC2=CC=CC(=C2)NC3=NC=C(C(=N3)NCCC4=CN=CN4)Br
Procedure, shortened: as §1

[4] = compound: C1CN(CCC1(CC2=CC=C(C=C2)Cl)N)C3=NC=NC4=C3C=CN4
Procedure, shortened: as §1

IRAK-1-4 Inhibitor I = compound: C1COCCN1CCN2C3=CC=CC=C3N=C2NC(=O)C4=CC(=CC=C4)[N+](=O)[O-] [IRAK-1-4 Inhibitor I]
Procedure, shortened: as §1

ibrutinib = compound: C=CC(=O)N1CCC[C@@H](n2nc(-c3ccc(Oc4ccccc4)cc3)c3c(N)ncnc32)C1 [ibrutinib]
Procedure, shortened: as §1

[5] = compound: CC(=O)c1cnc2ccc(-c3cc(Cl)c(O)c(Cl)c3)nc2c1N[C@H]1CC[C@H](CN(C)C)CC1
Procedure, shortened: as §1

ralimetinib = compound: CC(C)(C)Cn1c(N)nc2ccc(-c3[nH]c(C(C)(C)C)nc3-c3ccc(F)cc3)nc21 [ralimetinib]
Procedure, shortened: as §1

[6] = compound: CC(C)(O)CC(=O)NCCn1ccc2ncnc(Nc3ccc(Oc4cccc(C(F)(F)F)c4)c(Cl)c3)c21
Procedure, shortened: as §1

[7] = compound: CC1=C(C(CC(=O)N1)C2=CC=C(C=C2)C(F)(F)F)C(=O)NC3=C(C=C4C(=C3)C=NN4)F
Procedure, shortened: as §1

[8] = compound: CC1=C(C2=C(C=C1)C(=O)C3=CC=CC=C3N2CCCN)C
Procedure, shortened: as §1

[9] = compound: CC1=C(C=C(C=C1)NC(=O)C2=CC(=CC=C2)N(C)C)NC(=O)C3=CC=C(C=C3)O
Procedure, shortened: as §1

[10] = compound: CC1=CC=C(C=C1)SC2=C3C=C(SC3=CN=C2)C(=O)N
Procedure, shortened: as §1

erlotinib = compound: C#Cc1cccc(Nc2ncnc3cc(OCCOC)c(OCCOC)cc23)c1 [erlotinib]
Procedure, shortened: as §1

[11] = compound: C1=CC(=CC=C1C2=NC3=C(N2)C=C(C=C3)C(=O)N)OC4=CC=C(C=C4)Cl
Procedure, shortened: as §1

[12] = compound: CC(C)C1=C2N=C(C=C(N2N=C1)NCC3=CC=CC=C3)NCCCCCCN
Procedure, shortened: as §1

[13] = compound: CC1=C(C=C(C=C1)NC(=O)C2=CC(=CC=C2)C(C)(C)C#N)NC3=CC4=C(C=C3)N=CN(C4=O)C
Procedure, shortened: as §1

[14] = compound: C/C(=N\NC(=O)C1=CC(=CC=C1)S(=O)(=O)N2CCOCC2)/C3=C(C=CC(=C3)Cl)O
Procedure, shortened: as §1

[15] = compound: C1=CC2=C(C=CC(=C2)/C=C\3/C(=O)NC(=NCC4=CC=CS4)S3)N=C1
Procedure, shortened: as §1

[16] = compound: C1=CC=C2C(=C1)C3=NNC4=CC=CC(=C43)C2=O
Procedure, shortened: as §1

Measured: log2 fold change

PPM1B isoform 2 (UniProt O75688)
inactive: [1] -0.021 | [2] -0.057 | [3] -0.084 | [4] 0.154 | IRAK-1-4 Inhibitor I -0.019 | ibrutinib -0.092 | [5] 0.075 | ralimetinib 0.064 | [6] 0.009 | [7] 0.061 | [8] 0.024 | [9] -0.15 | [10] -0.191

PPP1R11 (UniProt O60927)
inactive: erlotinib -0.046 | [11] 0.015 | [1] 0.01 | [2] 0.004 | [3] 0 | [4] -0.03 | IRAK-1-4 Inhibitor I 0.132 | ibrutinib -0.037 | [5] 0.058 | ralimetinib 0.062 | [6] -0.021 | [12] -0.024 | [7] 0.1 | [8] 0.052 | [13] 0.059 | [9] -0.037 | [10] -0.01

PROSER3 (UniProt Q2NL68)
inactive: erlotinib -0.102 | [14] 0 | [11] 0.067 | [15] 0.187 | [16] -0.122 | [12] 0.011 | [13] -0.205

PRPF40A isoform 3 (UniProt O75400)
inactive: erlotinib 0.016 | [11] 0.045 | [2] -0.039 | [3] -0.091 | [4] -0.039 | IRAK-1-4 Inhibitor I -0.003 | [5] -0.028 | ralimetinib 0.03 | [6] -0.097 | [12] 0.014 | [9] 0.007 | [10] 0.092

PRG2 (UniProt P13727)
inactive: [3] -0.008 | [4] 0.093 | [5] 0.068 | [8] -0.099 | [13] 0.161 | [10] 0.05

PPTC7 (UniProt Q8NI37)
inactive: [14] 0.203 | [15] 0.046 | [2] -0.019 | [16] -0.18 | IRAK-1-4 Inhibitor I 0.019 | ralimetinib -0.067 | [6] 0.25 | [8] 0.006 | [9] -0.002

PROSER3, A0A2R8Y8D9
inactive: [8] -0.016 | [13] -0.01

PPP6R3 isoform 2 (UniProt Q5H9R7)
inactive: erlotinib -0.04 | [11] 0.044 | [2] 0.02 | IRAK-1-4 Inhibitor I -0.032 | ralimetinib 0.043 | [6] -0.01 | [12] -0.032 | [7] 0.207 | [9] 0.081

PPP1R14A, A0A0B4J2A3
inactive: erlotinib -0.212 | [11] 0.122 | [5] -0.043 | [12] -0.254 | [10] 0.015

PRG4 (UniProt Q92954)
inactive: [1] -0.296 | [2] -0.027 | IRAK-1-4 Inhibitor I 0.057 | ibrutinib 0.267 | [5] -0.002 | ralimetinib 0.037 | [6] -0.109 | [7] -0.091 | [8] -0.029 | [13] -0.027 | [9] 0.035 | [10] 0.034

PRMT2 (UniProt P55345)
inactive: [14] -0.026 | [15] -0.075 | [1] -0.087 | [2] -0.174 | [16] 0.288 | [3] -0.076 | [4] -0.034 | IRAK-1-4 Inhibitor I 0.018 | ibrutinib -0.034 | [5] 0.103 | ralimetinib 0.011 | [6] 0 | [8] -0.152 | [9] -0.154 | [10] 0.017

PPP1R14C (UniProt Q8TAE6)
inactive: [14] 0.018 | [15] -0.092 | [1] -0.05 | [2] 0.001 | [16] 0.021 | [3] 0.052 | [4] -0.02 | IRAK-1-4 Inhibitor I -0.014 | ibrutinib 0.067 | [5] 0.007 | ralimetinib 0.057 | [6] 0.042 | [7] -0.028 | [8] -0.097 | [9] -0.123 | [10] 0.068

PRADC1 (UniProt Q9BSG0)
inactive: erlotinib -0.016 | [11] 0.027 | [1] 0.018 | [2] 0 | IRAK-1-4 Inhibitor I 0.017 | ibrutinib 0.026 | [5] -0.395 | ralimetinib -0.023 | [6] 0.041 | [12] -0.125 | [7] 0.026 | [8] -0.009 | [13] 0.072 | [9] 0.008 | [10] -0.023

PPP1R12C isoform 3 (UniProt Q9BZL4)
inactive: [1] -0.012 | [2] 0.095 | IRAK-1-4 Inhibitor I 0.069 | ibrutinib 0.1 | ralimetinib 0.019 | [6] -0.066 | [13] 0.009 | [9] 0.034

PREP (UniProt H0Y5Y0)
inactive: [5] -0.051 | [10] 0.029

PPP1R7 isoform 2 (UniProt Q15435)
inactive: [2] 0.071 | IRAK-1-4 Inhibitor I 0.063 | [5] 0.225 | ralimetinib 0.057 | [6] 0.038 | [9] 0.056 | [10] -0.1

PRPF40B (UniProt Q6NWY9)
inactive: [13] -0.081

PPP2CB (UniProt E5RHC1)
inactive: [1] -0.102 | [2] 0.096 | IRAK-1-4 Inhibitor I -0.058 | ibrutinib 0.118 | [5] 0.255 | ralimetinib -0.024 | [6] 0.17 | [7] 0.024 | [8] -0.301 | [13] -0.119 | [9] -0.084 | [10] 0.257

PPP2R3B (UniProt Q9Y5P8)
inactive: [1] -0.073 | ibrutinib -0.323 | [5] -0.014 | [13] 0.049 | [10] 0.063

PPP2R5C isoform 2 (UniProt Q13362)
inactive: erlotinib 0.003 | [14] 0.044 | [11] 0.024 | [15] -0.046 | [1] 0.186 | [2] 0.024 | [16] 0.013 | IRAK-1-4 Inhibitor I 0.052 | ibrutinib -0.145 | ralimetinib -0.016 | [6] -0.02 | [12] 0.02 | [7] -0.012 | [8] 0 | [13] -0.155 | [9] 0.08

Quoted at random: 3 records from the list, in no set order.
PRPF40B (UniProt Q6NWY9)
inactive: [13] -0.081

PPP1R7 isoform 2 (UniProt Q15435)
inactive: [2] 0.071 | IRAK-1-4 Inhibitor I 0.063 | [5] 0.225 | ralimetinib 0.057 | [6] 0.038 | [9] 0.056 | [10] -0.1

PPP2R3B (UniProt Q9Y5P8)
inactive: [1] -0.073 | ibrutinib -0.323 | [5] -0.014 | [13] 0.049 | [10] 0.063

Continuation.

PRELID1 (UniProt Q9Y255)
inactive: [14] -0.095 | [15] -0.136 | [1] 0.044 | [2] -0.076 | [16] -0.117 | IRAK-1-4 Inhibitor I -0.015 | ibrutinib -0.012 | ralimetinib 0.103 | [6] -0.103 | [7] 0.005 | [13] -0.061 | [9] -0.074

PPME1 (UniProt Q9Y570)
inactive: erlotinib 0.129 | [11] 0.003 | [1] -0.09 | [3] -0.025 | [4] -0.033 | ibrutinib -0.038 | [5] -0.072 | [12] -0.238 | [8] -0.018 | [10] -0.077

PRNP (UniProt P04156)
inactive: erlotinib 0.277 | [11] -0.09 | [1] -0.126 | [2] 0.056 | IRAK-1-4 Inhibitor I -0.083 | ibrutinib -0.099 | [5] -0.034 | ralimetinib 0.046 | [6] -0.034 | [12] 0.116 | [7] 0.006 | [8] -0.093 | [13] -0.014 | [9] 0.03 | [10] 0.035

PRKX (UniProt P51817)
inactive: [14] 0.091 | [15] 0.523 | [1] 0.021 | [2] 0.04 | [16] -0.338 | [3] 0.433 | [4] 0.372 | IRAK-1-4 Inhibitor I 0.01 | ibrutinib 0.109 | [5] 0.053 | ralimetinib 0.057 | [6] -0.044 | [7] 0.077 | [8] -0.039 | [9] 0.061 | [10] 0.059

PRDM15 (UniProt P57071)
inactive: [2] -0.212 | IRAK-1-4 Inhibitor I 0.026 | ralimetinib 0.011 | [6] -0.246 | [8] 0.18 | [9] 0.008

PPP1R3E (UniProt Q9H7J1)
inactive: erlotinib 0.005 | [11] 0.078 | [12] -0.005

PPP2CA (UniProt E7ESG8)
inactive: [7] 0.239

PRICKLE3 (UniProt O43900)
inactive: [1] 0.132 | [2] -0.345 | IRAK-1-4 Inhibitor I 0.181 | ibrutinib 0.174 | ralimetinib 0.068 | [6] 0.079 | [9] 0.149

PPP1R7 (UniProt C9JD73)
inactive: [5] 0.066 | [10] 0.013

PPM1J (UniProt Q5JR12)
inactive: [5] -0.005 | [10] -0.03

PPP6R3 isoform 6 (UniProt Q5H9R7)
inactive: [2] -0.038 | IRAK-1-4 Inhibitor I -0.051 | ralimetinib -0.07 | [6] -0.108 | [9] 0.092

PPL (UniProt O60437)
inactive: [1] 0.506 | [3] -0.058 | [4] 0.009 | ibrutinib 0.028 | [7] 0.02 | [8] 0.368 | [13] 0.279
